PubChem BioAssay AID504764 | Drosophila RNAi Screening Center, 2011
The screen tested about 22,000 reagents; shown is a random part of those that have a named target and a result. In the full data, 403 (1.9%) got an active call. 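Unnormalised raw counts per well; ratio z-scores behind the hit calls and whether each hit raises or lowers signal are not deposited.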 Names joined by + are all predicted targets of the reagent. The record does not give: the amount of reagent.

Assay: 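Genes whose knock-down alters Notch-dependent transcription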 (primary screen)
Cells: Drosophila Kc167 cells
Knock-down reagent: long dsRNA against Drosophila genes
Timing: about 5 days (4 days dsRNA, then 24 h after transfection)
Treatment: transfection of constitutively active membrane-tethered Notch lacking the extracellular domain, read 24 h later
Measured: 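Light from a Notch-responsive E(spl)m3 luciferase reporter under active Notch, with control-promoter and no-Notch reporter wells to normalise; raw counts from paired wells a and b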
Direction: induced reporter light, run 1, well a and induced reporter light, run 1, well b: higher = more light from the Notch target reporter with active Notch; control promoter light, run 1, well a and control promoter light, run 1, well b: higher = more light from the viral control promoter (cell number, transfection, viability); uninduced reporter light, run 1, well a: higher = more light from the Notch target reporter without active Notch
Active means: 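Hit if the duplicate-averaged log2 ratio of induced to control-promoter light gives a plate-wise z beyond ±2, or induced to uninduced beyond ±1.8; weak-control or discordant-duplicate wells dropped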
Meaning of the calls: active = modifier hit (raised or lowered Notch signal); inactive = not a hit

Target gene	amplicon	induced reporter light, run 1, well a	induced reporter light, run 1, well b	control promoter light, run 1, well a	control promoter light, run 1, well b	uninduced reporter light, run 1, well a	Outcome
CG4377	DRSC04467	2.17e5	2.42e5	1.98e5	1.73e5	15725	inactive
CG11109	DRSC11633	1.24e5	1.49e5	96480	1.25e5	8470	inactive
Polr3F	DRSC15785	1.04e5	93645	1.06e5	1.07e5	6860	inactive
z	DRSC18855	9670	11565	17490	19575	6310	inactive
Frq2	DRSC20245	50380	55610	79115	58715	9500	inactive
GstD2	DRSC16684	82510	90200	76340	59700	5385	inactive
CG2076	DRSC19832	96175	97445	1.19e5	1.26e5	7060	inactive
Usf	DRSC18129	1.18e5	1.11e5	1.62e5	2.13e5	8280	inactive
Pdzd8	DRSC19355	1.49e5	1.37e5	2.62e5	2.22e5	9650	inactive
PGAP3	DRSC04989	1.68e5	1.74e5	1.73e5	1.82e5	12560	inactive
CG12948	DRSC14576	72445	79560	77450	57620	5510	inactive
Cyp12c1	DRSC11125	1.37e5	1.17e5	96215	1.09e5	9430	inactive
Ubc7	DRSC20299	1.22e5	96610	1.14e5	99675	11300	inactive
CCKLR-17D3	DRSC20015	91880	96365	72940	99575	11835	inactive
CCKLR-17D3	DRSC20017	61335	77395	72610	90995	11278	inactive
CG8925	DRSC16455	1.96e5	2.11e5	1.69e5	2.01e5	15860	inactive
CG8925	DRSC16456	1.55e5	1.75e5	1.44e5	1.26e5	13280	inactive
CG8925	DRSC16457	1.70e5	1.87e5	1.67e5	1.95e5	15955	inactive
mRpS35	DRSC08551	83630	1.17e5	1.46e5	1.00e5	5940	inactive
CG9701	DRSC11093	1.11e5	1.27e5	93010	89310	10940	inactive
CG11275	DRSC04095	13255	17235	17590	21930	710	inactive
CG9849	DRSC04573	2.25e5	1.78e5	1.64e5	1.81e5	16395	inactive

Next part (4 carried over from the part before).
Target gene	amplicon	induced reporter light, run 1, well a	induced reporter light, run 1, well b	control promoter light, run 1, well a	control promoter light, run 1, well b	uninduced reporter light, run 1, well a	Outcome
mRpS35	DRSC08551	83630	1.17e5	1.46e5	1.00e5	5940	inactive
CG9701	DRSC11093	1.11e5	1.27e5	93010	89310	10940	inactive
CG11275	DRSC04095	13255	17235	17590	21930	710	inactive
CG9849	DRSC04573	2.25e5	1.78e5	1.64e5	1.81e5	16395	inactive
BBS9	DRSC04257	43865	51315	46640	57365	4680	inactive
Cpr72Ec	DRSC10449	99860	93965	53645	73135	7490	inactive
Tctp	DRSC15649	88095	86095	85325	68945	5455	inactive
CG34232	DRSC05332	2.14e5	2.07e5	1.96e5	1.85e5	16385	inactive
CG7448 (retired record)	DRSC11828	1.12e5	1.13e5	62950	87725	8365	inactive
CG34039	DRSC09318	1.75e5	1.74e5	1.94e5	2.18e5	19725	inactive
CG17271	DRSC15210	1.96e5	1.70e5	2.06e5	2.22e5	13005	inactive
CG17271	DRSC22629						inactive
BaraA1 + BaraA2	DRSC05417	2.76e5	2.63e5	3.40e5	2.68e5	18335	inactive
CG7251	DRSC03039	1.84e5	2.01e5	1.81e5	1.57e5	15880	inactive
CG4815	DRSC15653	1.52e5	1.23e5	1.77e5	1.81e5	14428	inactive
CG6770	DRSC02992	1.04e5	99380	82125	91735	7255	inactive
